The source of these data is article PMC12864446.

Chains of the proteins cited; added tags and fusions are not shown. Lines headed by an entry give the natural chain unless they say otherwise; changes in a name come on top.
UniProt Q9ZVL6: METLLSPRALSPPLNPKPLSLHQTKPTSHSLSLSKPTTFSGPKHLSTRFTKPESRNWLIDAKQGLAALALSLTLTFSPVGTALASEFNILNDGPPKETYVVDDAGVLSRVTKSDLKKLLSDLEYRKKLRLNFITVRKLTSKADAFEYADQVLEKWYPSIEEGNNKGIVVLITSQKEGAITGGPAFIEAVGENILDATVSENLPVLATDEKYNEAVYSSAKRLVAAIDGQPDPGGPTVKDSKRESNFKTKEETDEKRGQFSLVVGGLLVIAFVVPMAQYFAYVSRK

Assay [1] deals with nLUC-TLP18.3 (Arabidopsis thaliana) (UniProt Q9ZVL6). The assay can be described thus: split reporter; split-luciferase complementation in intact N. benthamiana leaves; high light (600 µmol m-2 s-1) for 3 h at 2 dpi, 1 mM d-luciferin, CCD imaging; empty nLUC and cLUC as negative controls.
Assay [2] has as its target cYFP-TLP18.3 (Arabidopsis thaliana) (UniProt Q9ZVL6). Briefly: split reporter; BiFC with split YFP in mesophyll cells of tobacco leaves, confocal microscopy; empty vector combinations as negative controls.

Results are given in words; binding and its absence hold for the method and conditions named. In cells and extracts the contact can be indirect. Binding can be weak; no strength is given. Tags and fused reporters may be left off the sequences shown.

B1: cLUC-PsbS (protein, UniProt Q9XF91 60-265)
chain: AAPKKVEKPKSKVEDGIFGTSGGIGFTKANELFVGRVAMIGFAASLLGEALTGKGILAQLNLETGIPIYEAEPLLLFFILFTLLGAIGALGDRGKFVDDPPTGLEKAVIPPGKNVRSALGLKEQGPLFGFTKANELFVGRLAQLGIAFSLIGEIITGKGALAQLNIETGIPIQDIEPLVLLNVAFFFFAAINPGNGKFITDDGEES
For B1, the binding result in assay [1] is recorded as “binds”.

B2: PsbS-nYFP (protein, UniProt Q9XF91 60-265)
chain: AAPKKVEKPKSKVEDGIFGTSGGIGFTKANELFVGRVAMIGFAASLLGEALTGKGILAQLNLETGIPIYEAEPLLLFFILFTLLGAIGALGDRGKFVDDPPTGLEKAVIPPGKNVRSALGLKEQGPLFGFTKANELFVGRLAQLGIAFSLIGEIITGKGALAQLNIETGIPIQDIEPLVLLNVAFFFFAAINPGNGKFITDDGEES
Turning to B2, the binding result in assay [2] is recorded as “binds”.
